In the supplement of paper PMC10338343:
± gives the standard deviation. The list shows a part of the results. Many of these values have a large error.

Each sequence was assayed on EfPiwi piRISC loaded with L1MC piRNA (26 nt) (assay: pre-steady-state target cleavage rate (min^-1); guide: L1MC piRNA 5'p-UAACUAAAUACUAUGCAAGCUGUAGG; MIWI and MILI are mouse PIWI proteins and EfPiwi is from a freshwater sponge; tags in brackets are library labels; higher = faster piRNA-guided slicing of the target). Conditions: auxiliary factor: 500 nM Ephydatia muelleri Gtsf1.
In short: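 At 33 °C in HEPES–potassium acetate buffer, a transcribed, DNA-blocked target RNA library […] was exposed for 0–8 or 0–960 min to 1 nM active affinity-purified piRISC carrying a single synthetic guide, with or without 500 nM GTSF1 partner protein. Uncleaved targets were sequenced and normalised to depth and to weakly complementary targets. With three trials pooled and k3 capped at 0.0001 min^-1, a burst-and-steady-state fit produced the pre-steady-state cleavage rate.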

Sequence | pre-steady-state target cleavage rate
UCCUGCUUCAGCUUGCAAAGUAUUUAGUUA | 0.0683 ± 0.018
UCCUGGAUGUCGAUCCAUAGUAUUUUGUUA | 0.00011 ± 0.03
UCCUGGAUGUCGAACGUAUCUAUUUUGUAA | 0.000117 ± 0.021
UCCUGGAACAGCUUUGCAUAGUAUUUAGUUA | 0.0309 ± 0.0082
UCCUGGAUCAGCUUGCAAAGUAAUUAGUUA | 0.00209 ± 0.0032
UCCUGGAUGUCCCUUGCAUAGUAUUUAGUUA | 0.00608 ± 0.0026
UCCUGGAUGAGCUUGGUUAGUAUUUAGUUA | 0.00153 ± 0.0036
UCCUGGUACUCCUUGCAUAGUAUUUAGUAA | 0.00302 ± 0.002
UCCUGGAACAGCAUGCAAAGUAUUUAGUUA | 0.0163 ± 0.0061
UCCUCCUUCAGCUUGCAUACUAUUUAGUUA | 0.00784 ± 0.0025
UCCUGGAACAGCUUGCAUAGUAUUUAGUGA | 0.00437 ± 0.002
UCCUCCUACACCUUGGAUAGUAUUUAGUUA | 0.00658 ± 0.0029
UCCUGGAUGUCGAACCAAUGUAUUUAGUUA | 0.000276 ± 0.018
UCCUCCUACUCGUUGCAUAGUAUUUAGUAA | 0.00477 ± 0.0029
UCCUCCUUCAGGUUGCAUAGUAUUUAGUUA | 0.0528 ± 0.012
UCCUGCUACAGCUUGCAUAGUAUUUAGUUU [g2:g25:cont:t1U] | 0.158 ± 0.042
UCCUGGAACAGCUUGCUUAGUAUUUACUUA | 0.000882 ± 0.0054
UCCUGGAUGACCUUGCAUACUAUUUAGUUA | 0.00269 ± 0.0029
UCCUGGAUCAGCUUGCUUAGUAAUUAGUUA | 0.0988 ± 0.033
UCCUGGAACUCCUUGCAUAGUAUUUAGUAA | 0.00371 ± 0.0017
UCCUGGAAUCAGCUUGCAUAGUAUUUAGUUA | 0.0198 ± 0.0068
UCCUGGAUCAGCUUGCAUAGUAUUUUGUUA | 0.0125 ± 0.0042
UCCUCCUACAGGUUGCAUACUAUUUAGUUA | 0.00612 ± 0.0018
UCCUGGAUCAGCUUGCAUAGUAUUUUCAAA | 0.00307 ± 0.0027

Taken from the results shown (6 entries):
Sequence | pre-steady-state target cleavage rate
UCCUGGAUGUCGAACCAAUGUAUUUAGUUA | 0.000276 ± 0.018
UCCUCCUACUCGUUGCAUAGUAUUUAGUAA | 0.00477 ± 0.0029
UCCUCCUUCAGGUUGCAUAGUAUUUAGUUA | 0.0528 ± 0.012
UCCUGCUACAGCUUGCAUAGUAUUUAGUUU [g2:g25:cont:t1U] | 0.158 ± 0.042
UCCUGGAACAGCUUGCUUAGUAUUUACUUA | 0.000882 ± 0.0054
UCCUGGAUGACCUUGCAUACUAUUUAGUUA | 0.00269 ± 0.0029
